# For at least one compound, name, drawing or mass did not settle the structure.
# Test system: Plasmodium berghei anka
# Test: Treatment and prophylaxis of malaria in infected mice, model of cerebral malaria (Example 12)
# Format: in vivo
# Conditions: prophylaxis regimen (from 2 days before infection, 6 days), intranasal in the enhancing permeation carrier, 10mg DHA/kg/day, ICR female mice
# Description: Experiments were carried out in vivo in ICR female mice infected with 10^6 erythrocytes parasitized Plasmodium berghei anka, a model of cerebral malaria with striking similarities to the human disease. Infections were monitored using giemsa-stained thin blood smears prepared from tail blood. The animals were treated under isoflurane anesthesia with 10mg DHA/kg/day in a two divided daily doses by two dosage regimens: prophylaxis regimen- starting at 2 days before the infection for a total of 6 days; treatment regimen- starting on day 2 after infection (parasitemia first detected) for a total of 4 days. Mice were either treated by the intranasal administration or by the i.p. injection containing the same DHA doses. Controls included placebo (delivery carrier only) and untreated infected animals. Experiments were conducted in accordance with institutional guidelines for animal care.
compound,measurement,value
"C[C@H]1[C@@H](O)O[C@@H]2O[C@@]3(C)CC[C@H]4[C@H](C)CC[C@@H]1[C@@]24OO3 [DHA, dihydroartemisinin]",parasites detected,not detected
